# Source: PubChem BioAssay AID1458 (National Center for Advancing Translational Sciences (NCATS), 2008)
# Hit rate of the full screen: of about 210,000 compounds, about 5,900 (2.8%) were called active. Inconclusive results (about 5%) are left out. The call rests on the fitted dose curve; in most records, active means well fitted activation curve with a large enough effect; inconclusive means small, poorly fitted or top-dose-only effect; inactive means no such curve, though single readings can be large or run the other way. The list shows a part of the results, in another mix than the full data. Entries without a call were filed so in the source.
# Experiment: qHTS Assay for Enhancers of SMN2 Splice Variant Expression; further: nearly all actives have a fitted effect of over 55% in size; on activity change, positive = activation: % of control where 0% means no effect
# Details: HEK293 SMN2-luciferase splicing reporter, luminescence, 30-36 h; activity change, positive = activation: at 46.1 µM (top of the series) unless noted
# In short: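 HEK293 cells carry an SMN2 minigene-luciferase reporter in which exon 7 inclusion puts luciferase in frame. Cells were seeded at 2000 cells/well, attached for 10-12 hours, then exposed to compounds for 30-36 hours at 37C before ONE-Glo luminescence.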
# Potency means the concentration at half of the fitted maximal effect.
Structure (SMILES),"activity change, positive = activation",Potency
CC(NC(=O)CSc1n[nH]c(=O)n1C1CC1)C12CC3CC(CC(C3)C1)C2 (stereo not drawn),36.1%,–
CCn1c(SCC(=O)Nc2cc(OC)ccc2OC)nnc1C1CCCCC1,29.3%,–
CC(=O)NCCNC(=O)c1ccc(CSc2ccc(Cl)cc2)cc1,–,active: 12.6 µM
Cc1cccc(NC(=O)c2sc3nc(N)c(C#N)cc3c2N)c1,–,active: 15.8 µM
CC(=Nc1cccc(C)c1)c1sc2ccccc2c1O,–,active: 12.6 µM
Cc1ccc(-c2nn3c(C)nnc3c3ccccc23)cc1S(=O)(=O)NCc1ccco1,–,active: 12.6 µM
O=C(Cc1cccc2ccccc12)N/N=C/c1ccc(Sc2cccc3cccnc23)o1,inactive: -57.7%,–
O=C(NC1CCCCCC1)C(=S)NC1CCCCC1,inactive: -36.2%,–
Nc1nnc(-c2cc3ccccc3oc2=O)s1,–,active: 17.8 µM
COc1ccccc1N(C)S(=O)(=O)c1ccc(C(=O)Nc2ccc3nc(C)sc3c2)cc1,inactive: -50.6%,–
CCC(=O)Nc1ccc(/C(C)=N\NC(=O)c2ccc(C)s2)cc1,14.2%,–
COC(=O)c1c(C(=O)OC)c(C)n(Cc2ccco2)c1C,31.6%,–
CCN(CC)S(=O)(=O)c1cccc(NC(=O)c2ccc(-n3nc(C)cc3C)cc2)c1,inactive: -86.1%,–
CCOc1ccc(C(=O)NC(=S)Nc2ccccc2N2CCOCC2)cc1Br,-52.7%,–
COCCCNC(=O)c1sc2ncnc(N3CCc4ccccc4C3)c2c1C,-54.5%,–
O=C(CSc1nc2ccccc2n1S(=O)(=O)c1ccccc1)N1CCCCC1,38.5%,–
CC(C)(C)NC(=O)CSc1nncn1-c1ccccc1,30.3%,–
COc1ccc(OC)c(S(=O)(=O)N2Cc3ccccc3CC2C(=O)O)c1 (stereo not drawn),27.8%,–
COc1ccc(C2(O)CCN(CCCCOc3ccccc3)CC2)cc1,27.6%,–
Cc1nn(Cc2ccc(Cl)c(Cl)c2)c(C)c1NC(=O)c1cc(CC(C)C)on1,inactive: -69.6%,–
Cn1c(SCC(=O)OCC(=O)c2ccccc2)nnc1-c1cccs1,28.3%,–
COC(=O)c1[nH]c2c(c1C)C(=O)CC(c1cccs1)C2 (stereo not drawn),40.5%,–
O=C(NC(CSCc1ccccc1)C(=O)N/N=C/c1ccc(O)cc1O)c1ccc([N+](=O)[O-])cc1 (stereo not drawn),-91.4%,–

Structure (SMILES),"activity change, positive = activation",Potency
O=C(Nc1nc(-c2ccccn2)cs1)c1ccco1,inactive: -85.3%,–
COc1ccc(-c2noc(CCC(=O)N(C)c3cc(Cl)ccc3OC)n2)cc1,inactive: -40.6%,–
O=C(/C=C/c1ccc(Cl)cc1)NC(=S)Nc1ccc(CN2CCOCC2)cc1,19.8%,–
C/C(=N\NC(=O)Cc1cccn1C)c1cccs1,-4.51%,–
COc1ccc(C(=O)c2c(N)c(-c3nc(-c4ccc5c(c4)OCO5)cs3)c3ccccn23)cc1,43.6%,–
CCN(CC)S(=O)(=O)c1ccc(NC(=O)CSc2nnc(-c3ccc(F)cc3)o2)cc1,-50%,–
Cc1ccc(NC(=S)N(Cc2ccco2)C(C)c2cccs2)cc1 (stereo not drawn),40%,–
C=CCNc1nc2c(c(=O)n(C)c(=O)n2C)n1Cc1ccc(F)cc1,inactive: -86.3%,–
COc1ccc(C(=O)NCCc2ccc(S(N)(=O)=O)cc2)cc1OC,31.1%,–
CC(C)(C#CCN1CCCCC1)OCCOC(c1ccccc1)c1ccccc1,-59.2%,–
O=C(CCS(=O)(=O)c1ccc(Br)cc1)Nc1cc(F)ccc1F,0.913%,–
CCCn1c(SCC(=O)N2CCN(c3ccc(OC)cc3)CC2)nc2c1c(=O)n(C)c(=O)n2C,inactive: -38.8%,–
COC(=O)C1(Cc2ccccc2)C2c3cc(C(=O)N4CCCC4)n(Cc4ccc(OC(F)(F)F)cc4)c3CC2CN1C(=O)c1ccccc1 (stereo not drawn),inactive: -45.9%,–
c1ccc2c(-c3nc(C4CCCCC4)no3)cc(-c3ccncc3)nc2c1,-80.8%,–
COCCOC(=O)c1[nH]c2c(c1C)C(=O)CC(c1cccs1)C2 (stereo not drawn),inactive: -57%,–
CC(=O)SCC(=O)N=c1sc2cc(F)ccc2n1C,inactive: -19.1%,–
Cc1ccc(NC(=O)/C=C/c2ccco2)nc1,–,active: 14.1 µM
CC(C)OC(=O)c1ccc(NC(=O)c2ccco2)cc1,93.4%,–
Cc1ccc(S(=O)(=O)Nc2cc(Cl)c(O)cc2C)cc1,-42.4%,–
NC(=O)c1ccccc1N/C=C/C(=O)c1ccco1,–,active: 11.2 µM
CC1=NN(c2ccccc2)C(=O)/C1=C\C=C1/N(C)c2ccccc2C1(C)C,inactive: -21.6%,–
Cc1ccc(O)c(C(=O)c2cnc3c(c2)CN(C)C(=O)N3)c1,34.2%,–
O=C(Oc1c(CN2CCOCC2)cc(Cl)c2cccnc12)c1ccc(F)cc1,-57.2%,–

Structure (SMILES),"activity change, positive = activation",Potency
CCOc1ccc(NC(=O)c2ccc3c(SCC(=O)O)c4c(nc3c2)CCC4)cc1,inactive: -64.8%,–
O=C(Nc1nc2ccc(F)cc2s1)C1CCCO1 (stereo not drawn),–,active: 15.8 µM
O=c1[nH]c2cc3c(cc2cc1C(c1nnnn1Cc1ccccc1)N1CCN2CCCC2C1)OCCO3 (stereo not drawn),37.8%,–
COc1cc2ncnc(Nc3cccc(Cl)c3)c2cc1OC,–,inactive
COCCn1nnnc1C(c1ccc(OC)cc1OC)N1CCN(c2ccccc2)CC1 (stereo not drawn),34.9%,–
CC(C)CN(C(=O)c1ccc(=O)n(C)n1)c1nc2ccccc2s1,–,active: 20 µM
Cc1cccc(NC(=O)Cc2coc3ccc4ccccc4c23)n1,30.7%,–
N#Cc1ccccc1OCCN1C(=O)c2ccccc2C1=O,53.2%,–
CC1(C)OC2CC3C4CC(F)C5=CC(=O)CC[C@@]5(C)C4C(O)C[C@@]3(C)[C@]2(C(=O)CO)O1 (stereo partly drawn),inactive: 4.91%,–
CC(=O)c1c(C)[nH]c(C(=O)OCC(=O)Nc2ccccc2Cl)c1C,-62.7%,–
CC(C)n1c(SCC(=O)NCc2ccco2)nc2c1c(=O)n(C)c(=O)n2C,31.9%,–
O=C1OCCC1Sc1nnc(-c2ccccc2Cl)n1Cc1ccccc1 (stereo not drawn),21.5%,–
O=C(CSc1ncnc2sc3c(c12)CCCC3)N1CCC(c2noc3ccc(F)cc23)CC1,inactive: -49.9%,–
O=C(c1ccc(-c2nc3ccccc3s2)s1)N1CCOCC1,-63.4%,–
c1ccc(Nc2nc(N3CCOCC3)c3ccccc3n2)cc1,-42%,–
COc1ccccc1CC(=O)Nc1ccc(O)cc1C(=O)O,45.7%,–
Cc1cccc(NC(=O)Cn2cc([N+](=O)[O-])cn2)n1,-34.1%,–
O=C(O)C1CC=C(Cl)CC1C(=O)NCc1ccccc1 (stereo not drawn),29%,–
O=C(CSc1nnnn1-c1ccccc1)CC(=O)Nc1ccc(Cl)cc1,inactive: -48%,–
O=C(NCCc1ccccn1)c1ccc(OC(F)F)cc1,–,active: 11.2 µM
Nc1ccc2c(c1)C(=O)N(CCCC(=O)O)C2=O,34.2%,–
CC(=O)Oc1ccccc1C1OCCN1C(C)=O (stereo not drawn),33.3%,–

# Structures from the list above that contain a Cl atom (11):
Structure (SMILES),"activity change, positive = activation",Potency
CC(=O)NCCNC(=O)c1ccc(CSc2ccc(Cl)cc2)cc1,–,active: 12.6 µM
Cc1nn(Cc2ccc(Cl)c(Cl)c2)c(C)c1NC(=O)c1cc(CC(C)C)on1,inactive: -69.6%,–
COc1ccc(-c2noc(CCC(=O)N(C)c3cc(Cl)ccc3OC)n2)cc1,inactive: -40.6%,–
O=C(/C=C/c1ccc(Cl)cc1)NC(=S)Nc1ccc(CN2CCOCC2)cc1,19.8%,–
Cc1ccc(S(=O)(=O)Nc2cc(Cl)c(O)cc2C)cc1,-42.4%,–
O=C(Oc1c(CN2CCOCC2)cc(Cl)c2cccnc12)c1ccc(F)cc1,-57.2%,–
COc1cc2ncnc(Nc3cccc(Cl)c3)c2cc1OC,–,inactive
CC(=O)c1c(C)[nH]c(C(=O)OCC(=O)Nc2ccccc2Cl)c1C,-62.7%,–
O=C1OCCC1Sc1nnc(-c2ccccc2Cl)n1Cc1ccccc1 (stereo not drawn),21.5%,–
O=C(O)C1CC=C(Cl)CC1C(=O)NCc1ccccc1 (stereo not drawn),29%,–
O=C(CSc1nnnn1-c1ccccc1)CC(=O)Nc1ccc(Cl)cc1,inactive: -48%,–
